Primary screen of a compound library

Sequences of proteins named here, by UniProt entry; tags and fusion partners are left off. Residues count along the entry.
UniProt Q8IDJ8, 1-583: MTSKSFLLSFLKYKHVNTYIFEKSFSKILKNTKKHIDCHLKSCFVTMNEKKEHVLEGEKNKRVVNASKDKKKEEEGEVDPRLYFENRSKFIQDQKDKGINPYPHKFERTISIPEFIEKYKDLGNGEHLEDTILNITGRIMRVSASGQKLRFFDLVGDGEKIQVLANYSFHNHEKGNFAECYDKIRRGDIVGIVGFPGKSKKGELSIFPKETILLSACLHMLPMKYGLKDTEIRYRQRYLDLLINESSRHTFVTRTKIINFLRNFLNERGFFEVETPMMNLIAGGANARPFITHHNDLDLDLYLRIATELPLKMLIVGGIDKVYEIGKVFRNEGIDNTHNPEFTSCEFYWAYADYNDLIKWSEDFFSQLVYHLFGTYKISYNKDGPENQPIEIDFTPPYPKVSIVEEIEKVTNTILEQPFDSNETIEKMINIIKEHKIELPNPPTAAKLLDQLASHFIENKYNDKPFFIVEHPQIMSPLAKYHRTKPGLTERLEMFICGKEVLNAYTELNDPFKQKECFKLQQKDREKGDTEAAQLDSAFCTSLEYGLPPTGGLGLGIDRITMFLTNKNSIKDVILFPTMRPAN
UniProt Q4DA54, 1-478: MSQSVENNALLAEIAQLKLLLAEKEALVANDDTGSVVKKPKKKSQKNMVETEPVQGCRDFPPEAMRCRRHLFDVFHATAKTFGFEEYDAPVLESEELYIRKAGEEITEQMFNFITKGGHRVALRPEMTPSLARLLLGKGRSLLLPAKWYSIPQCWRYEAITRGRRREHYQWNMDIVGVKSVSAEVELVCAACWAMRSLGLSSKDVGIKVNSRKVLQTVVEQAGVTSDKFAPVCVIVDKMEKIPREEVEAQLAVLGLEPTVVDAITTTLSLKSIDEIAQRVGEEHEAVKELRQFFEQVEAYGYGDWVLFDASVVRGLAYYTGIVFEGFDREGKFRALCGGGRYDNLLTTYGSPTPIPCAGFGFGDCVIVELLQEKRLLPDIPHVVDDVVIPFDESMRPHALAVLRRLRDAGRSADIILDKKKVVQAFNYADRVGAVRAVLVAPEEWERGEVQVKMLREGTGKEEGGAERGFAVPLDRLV
UniProt I6X8D2, whole entry: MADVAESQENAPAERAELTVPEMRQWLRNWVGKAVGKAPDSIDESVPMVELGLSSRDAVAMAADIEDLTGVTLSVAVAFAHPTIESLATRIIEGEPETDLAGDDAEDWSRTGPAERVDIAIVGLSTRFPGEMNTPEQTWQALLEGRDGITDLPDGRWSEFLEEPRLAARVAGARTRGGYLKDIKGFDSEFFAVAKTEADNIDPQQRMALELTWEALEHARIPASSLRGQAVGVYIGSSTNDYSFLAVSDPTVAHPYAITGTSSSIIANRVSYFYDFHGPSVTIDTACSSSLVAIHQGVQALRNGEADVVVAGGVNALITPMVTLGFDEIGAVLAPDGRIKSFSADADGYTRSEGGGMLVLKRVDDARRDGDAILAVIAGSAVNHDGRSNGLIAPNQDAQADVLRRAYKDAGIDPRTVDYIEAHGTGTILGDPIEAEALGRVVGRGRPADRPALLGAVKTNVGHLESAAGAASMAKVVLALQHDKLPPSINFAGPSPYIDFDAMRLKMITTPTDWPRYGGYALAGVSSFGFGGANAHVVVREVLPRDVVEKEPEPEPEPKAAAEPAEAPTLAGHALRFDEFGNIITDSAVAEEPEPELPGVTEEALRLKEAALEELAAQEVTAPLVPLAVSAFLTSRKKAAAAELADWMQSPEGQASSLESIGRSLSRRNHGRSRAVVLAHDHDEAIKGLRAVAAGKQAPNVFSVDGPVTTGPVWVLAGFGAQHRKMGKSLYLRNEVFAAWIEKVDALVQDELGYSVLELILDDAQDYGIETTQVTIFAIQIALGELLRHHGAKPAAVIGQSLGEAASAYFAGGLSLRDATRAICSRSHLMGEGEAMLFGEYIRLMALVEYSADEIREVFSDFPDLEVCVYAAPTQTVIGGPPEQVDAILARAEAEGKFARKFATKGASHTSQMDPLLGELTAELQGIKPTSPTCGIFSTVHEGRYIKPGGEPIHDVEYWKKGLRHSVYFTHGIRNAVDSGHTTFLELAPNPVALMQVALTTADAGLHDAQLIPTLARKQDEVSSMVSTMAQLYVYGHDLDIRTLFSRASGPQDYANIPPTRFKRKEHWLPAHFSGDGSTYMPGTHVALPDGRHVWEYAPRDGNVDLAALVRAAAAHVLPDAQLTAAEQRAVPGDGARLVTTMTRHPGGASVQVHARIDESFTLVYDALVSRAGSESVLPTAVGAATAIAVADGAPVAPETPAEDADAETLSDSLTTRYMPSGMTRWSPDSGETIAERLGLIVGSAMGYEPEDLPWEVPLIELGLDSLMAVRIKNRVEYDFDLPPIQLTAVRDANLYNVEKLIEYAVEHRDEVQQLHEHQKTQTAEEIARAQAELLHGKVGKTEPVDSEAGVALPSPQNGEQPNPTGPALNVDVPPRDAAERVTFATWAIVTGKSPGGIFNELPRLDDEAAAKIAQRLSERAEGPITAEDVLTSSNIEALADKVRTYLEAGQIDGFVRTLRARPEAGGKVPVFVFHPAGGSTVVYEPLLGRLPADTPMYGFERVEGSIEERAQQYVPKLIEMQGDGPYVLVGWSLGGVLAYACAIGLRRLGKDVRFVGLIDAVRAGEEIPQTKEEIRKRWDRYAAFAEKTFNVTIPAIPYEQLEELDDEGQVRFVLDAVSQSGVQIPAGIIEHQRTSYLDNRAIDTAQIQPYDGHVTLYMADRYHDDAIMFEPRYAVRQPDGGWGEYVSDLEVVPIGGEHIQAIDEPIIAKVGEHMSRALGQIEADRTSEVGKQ

From ChEMBL document CHEMBL3988442, “University of Dundee, Small-Polar-MMV Screening Library” (2021).

PfKRS1: 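Lysine-tRNA ligase, Plasmodium falciparum 3D7 (UniProt Q8IDJ8). Enzyme assay of the cytosolic lysyl-tRNA synthetase in 384-well plates, read by luminescence. Concentration: 30 µM. Higher reads as stronger inhibition, judged from the few compounds that gave an IC50. About 69,000 compounds were tested under these conditions; 0.071% (about 49) showed 50% or more at least once.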
TcHisRS: 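Enzyme assay of histidyl-tRNA synthetase; the read-out is not stated. Target: Histidine-tRNA ligase, Trypanosoma cruzi CL Brener (UniProt Q4DA54). Concentration: 30 µM. Direction is inferred from retests: higher values go with stronger inhibition. About 69,000 compounds were tested under these conditions; 0.045% (about 31) showed 50% or more at least once.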
Leishmania in macrophages: 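Cell assay of Leishmania donovani living inside macrophages; the read-out is not stated. Compounds at 30 µM. Direction is inferred from retests: higher values go with stronger inhibition. Size under these conditions: about 69,000 compounds, about 1,000 of them at 50% or above in at least one test.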
Pks13 thioesterase: 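Polyketide synthase Pks13, Mycobacterium tuberculosis (UniProt I6X8D2). Enzyme assay of the thioesterase domain of polyketide synthase 13; the read-out is not stated. Compounds at 30 µM. Higher reads as stronger inhibition (inferred from which compounds were picked for retests). About 67,000 compounds were tested under these conditions; 0.46% (about 300) showed 50% or more at least once.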

Each number is a percent effect as filed.
The controls that fix the scale are not given in the record; negative values are as filed.
The compounds are a random part of those screened.
Two or more numbers in one place are separate tests of the same structure; such repeats can differ widely.
A dash means the value is not listed here; it may have been measured.

SMILES,PfKRS1,TcHisRS,Leishmania in macrophages,Pks13 thioesterase
CCC(O)CN1CCN(C(=O)c2sccc2C2CC2)CC1 (stereo not shown),-0.1742,3.704,18.06,-20.29
Cc1ccnc(C2CN(c3ccnc(C)n3)C2)n1,0.1138,1.515,46.87,1.125
Cn1cc(C[C@H]2[C@H](O)CCN2C(=O)C2CCOCC2)cn1,1.771,2.151,6.05 and 28.4,-23.25
CNS(=O)(=O)c1ccc(CNC(=O)C2CCCN(C)C2)cc1 (stereo not shown),3.911,18.33,-5.637,1.617
CC1CN(C(=O)CCc2cc(Br)cs2)CCO1 (stereo not shown),4.744,-1.734,21.47,-27.19
CC(C)CNC(=O)N1CCOC2(CCNCC2)C1,0.2171,4.598,19.82,-29.97
CCN(CC)C(=O)CN1CCCC1C(=O)N(C)C (stereo not shown),0.7168,-1.19,22.64,20.13
CSc1ccc(C2CC(=O)Nc3c2c(=O)[nH]c2ncnn32)cc1 (stereo not shown),4.49,6.341,22.4,-4.079
NC(=O)c1ccc(CNC2CC2)cc1,-0.2954,-0.6369,-,-26.88
O=C(NCc1n[nH]c2c1CCCCC2)c1cnn2c1CCCC2,4.053,2.899,-5.665,-26.85
CC(C)(O)CCc1ccc(C(=O)NCC2CCCOC2)cc1 (stereo not shown),6.521,6.061,1.788,1.72
COc1cccc(C(=O)C2CCCN(c3cc(C#N)ccn3)C2)c1 (stereo not shown),1.192,1.754,29.93,3.808
O=S(=O)(CCc1ccccc1Cl)CC(O)CO (stereo not shown),4.006,4.663,-24,-12.83
CCCc1cc(NCCCC2CCOC2)n2nccc2n1 (stereo not shown),5.056,6.806,32.07,-29.56
CC(C)N(C)C(=O)C1CSCN1S(=O)(=O)c1cccs1 (stereo not shown),3.244,6.952,32.05,-34.8
CC(NC(=O)N1CCN(c2ccccc2O)CC1)c1nncn1C (stereo not shown),0.2213,3.955,-7.323,-14.24
O=C(NCc1cccc(F)c1)NC1CCCN(c2ncccn2)C1 (stereo not shown),1.246,3.333,-3.885,-
COc1ccc2c(c1)C(C(=O)NCCN1CCOC1=O)CC(=O)N2 (stereo not shown),7.851,8.434,-0.6665 and 12.36,-5.212
c1cc2c(cc1CN1CCCC3(CCOC3)C1)OCO2 (stereo not shown),-1.636,-3.659,-16.84,36.05
CN(C)CCCN(C)c1nccc(N2CCN[C@H]3CS(=O)(=O)C[C@H]32)n1,-0.9741,3.247,-,-7.498
Cc1ccccc1SC1CCN(C(=O)[C@H]2[C@@H]3CNC[C@@H]32)CC1,9.485,2.618,-,4.174
CCOC(=O)COc1cccc(NC(=O)C2COCCO2)c1 (stereo not shown),4.521,-8.163,6.22,-
Cn1cccc1C(=O)NCc1cn2c(n1)CN(Cc1ccccn1)CC2.O=C(O)C(F)(F)F.O=C(O)C(F)(F)F,-,-,52.64,-
Cc1ccc(CN2CCc3ncc(CNS(C)(=O)=O)n3CC2)o1.O=C(O)C(F)(F)F,-,-,17.79,-
CC(Nc1cccc(CN2CCOC2=O)c1)C(=O)Nc1ccccc1 (stereo not shown),0.7295,6.745,13.56,-12.29
CN(C)CCN1CCN(Cc2cccs2)Cc2cccnc21.O=C(O)C(F)(F)F.O=C(O)C(F)(F)F.O=C(O)C(F)(F)F,-,-,-2.293,-
CCC(=O)N1CCC2(CC1)C(=O)N(C)CCN2Cc1csc(C)n1,3.493,2.793,-,-12.97
O=C1CC2(CCCCN2C(=O)c2ccoc2)CN1Cc1ccccc1 (stereo not shown),2.593,8.738,14.46,-25.27
Cc1ccc(CN2CCC3(CC2)CN(c2ccccc2)C(=O)CO3)o1.O=C(O)C(F)(F)F,-,-,46,-
c1cnc(N2C[C@H]3CN(CC4CCOC4)C[C@H]3C2)nc1 (stereo partly shown),2.437,2.4,-,5.777
Cc1cc(Oc2ccccc2F)nc(C2CCCCN2)n1 (stereo not shown),0.6008,6.977,-,-1.997
Cc1cccc(-c2cc(-c3c(C)nn(CCO)c3C)c(C#N)c(N)n2)c1,1.86,6.466,28.71,35.34
COc1ccc(Nc2ncccc2C#N)cc1N1CCCC1=O,-3.137,-3.03,-29.6,13.61
CNc1ncccc1C(=O)N1CCc2c(nc(N)[nH]c2=O)C1,2.058,4.036,27.62,-17.65
COc1cc(CNCCc2cnn(C)c2)cc2c1OCO2,1.161,7.647,22.06,-16.59
c1ccc(-n2nnnc2CN2CCCC(Cn3cncn3)C2)cc1 (stereo not shown),7.597,-2.632,4.671,-5.145
Cc1ccnc(C2CCN(S(=O)(=O)c3cn(C)cn3)CC2)n1,0.3763,2.239,19.31 and 15.76,-0.3081
Cc1occc1C(=O)N1CCC2(CCN(Cc3cccs3)C2)CC1.O=C(O)C(F)(F)F,-,-,14.88,-
Cc1noc(OCc2csc(C)n2)n1,3.939,10.83,25.85,-37.6
CCCc1nc(Nc2cccc(C(N)=O)c2)c2c(n1)c(C)nn2CC,0.2895,2.609,-16.45,-19.86
COc1ccc(CNC(=O)N2CCOCC2C2CC2)cc1C (stereo not shown),-0.8216,0,33.36,-30.36
CN(Cc1nccn1C)S(=O)(=O)N1CCCC1c1ccco1 (stereo not shown),5.701,7.229,-23.47 and 26.77,-16.91
CC(C)CN1CCCC2(CCN(C(=O)c3cnccn3)C2)C1 (stereo not shown),-3.709,4.348,23.37,-11.41
O=C1CO[C@@H]2CN(C3CCOCC3)C[C@H]2N1Cc1ccncc1,1.709,4.02,-,-6.226
CCc1nnc(CN2CCC(C3CCCCCN3C(C)=O)CC2)o1.Cl (stereo not shown),-,-,-23.92,-
[H][C@]12CCC[C@@]1(COc1ccccn1)CN(C(=O)Cc1ccccn1)C2,-,-,27.03,-
COCCCNc1nc(CNC(=O)C2CCC2)cc(-c2ccco2)n1,1.983,9.04,-3.786 and 10.25,27.13
CN1CCC(Oc2ccc(-n3ccnc3-c3nccn3C)cc2)CC1,-0.4424,10.45,36.03,-21.12
CO[C@@H]1CCC[C@@H](N(C)C(=O)c2cn3cc(C)ccc3n2)[C@H]1O,-0.6834,3.448,17.7,-3.51
CCCSCC(=O)N1C[C@@H]2CC[C@H](C1)N(Cc1ccccn1)C2=O,4.06,0,-,11.81
Cc1ccccc1CN(C)C(=O)CN1CCOC(Cn2cncn2)C1 (stereo not shown),3.881,4,1.856,-9.758
COCCOc1ccc(NC(=O)N2CCOC(C(N)=O)C2)cc1F (stereo not shown),-2.054,11.06,-3.721,15.18
CCN1C(=O)C[C@@H]2[C@@H]1CCN2S(=O)(=O)c1cccc(C)c1,2.111,0.9709,-,-55.36
Cc1nc(-c2cccc(N3CCC(NC4CCSC4)CC3)c2)cs1 (stereo not shown),0.8241,2.41,8.494,-6.697
CCC(CC)C(=O)N1CCN(Cc2cc(=O)c3ccccc3[nH]2)CC1,0.8962,2.97,9.024,-14.95
c1ccc(OCc2noc3c2CN(c2ncccn2)CC3)nc1,3.656,10.13,-,-22.69
COc1ccc(NC(=O)N2CCCC2c2ccncc2)cn1 (stereo not shown),21.6,6.723,2.813,-7.697
O=C([C@@H]1CC[C@@H]2[C@@H](CCN2Cc2ccncc2)O1)N1CCCCO1,4.86,5.882,-,-8.224
CN(C)C(=O)c1ccc2c(c1)N(C)C(CC(=O)NCc1ccno1)CO2 (stereo not shown),3.201,3.252,22.79,-13.08
CCCNC(=O)Nc1ccc2c(c1)N(S(=O)(=O)CC)CC2,-3.849,3.518,-15.54,3.758
COc1cc(-c2nccn2CCn2cccn2)cc2c1OCO2,1.902,3.665,44.25,-12.29
CC(O)CN1CCC(CNCc2ccc(C(N)=O)cc2)CC1 (stereo not shown),0.247,3.198,9.145,-12.33

3 of the entries, repeated:

{"smiles": "COc1cc(CNCCc2cnn(C)c2)cc2c1OCO2", "PfKRS1": 1.161, "TcHisRS": 7.647, "Leishmania in macrophages": 22.06, "Pks13 thioesterase": -16.59}
{"smiles": "CC(C)CN1CCCC2(CCN(C(=O)c3cnccn3)C2)C1", "stereo": "stereo not shown", "PfKRS1": -3.709, "TcHisRS": 4.348, "Leishmania in macrophages": 23.37, "Pks13 thioesterase": -11.41}
{"smiles": "Cn1cc(C[C@H]2[C@H](O)CCN2C(=O)C2CCOCC2)cn1", "PfKRS1": 1.771, "TcHisRS": 2.151, "Leishmania in macrophages": "6.05 and 28.4", "Pks13 thioesterase": -23.25}